{"source": "the supplement of paper PMC8975748", "note": "Counter-ions that a name gives are not always drawn. ± gives the standard deviation of the averaged measurements. This is one part of the list. Values are raw readings; no control value is given beside them.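 A single yeast strain with four plasmids, each encoding a fluorescent protein and an amino-acid or uracil biosynthesis gene, seeds the community. Stochastic plasmid loss yields mixed prototroph and auxotroph subpopulations. Fixed cells were counted via automated confocal fluorescence imaging; DMSO-treated wells were the vehicle reference.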"}
{"test_system": "Saccharomyces cerevisiae BY4741 SeMeCo community", "experiment": "imaged cell count per well (cells); higher = more cells", "details": "10 µM; 24 h; SM minimal medium", "protocol": "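Same SeMeCo high-content imaging drug screen: Selleck FDA-approved drugs at 10 µM, 24 h in SM medium, 384-well plates, 3 replicates.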"}
{"smiles": "OC(c1ccccc1)(c1ccccc1)C12CC[N+](CCOCc3ccccc3)(CC1)CC2", "note": "[Umeclidinium bromide]", "imaged cell count per well": "23000 ± 1800"}
{"smiles": "OCCN1CCN(CCCN2c3ccccc3Sc3ccc(Cl)cc32)CC1", "note": "[Perphenazine]", "imaged cell count per well": "25800 ± 5600"}
{"smiles": "NC(CO)(CO)CO", "note": "[Trometamol]", "imaged cell count per well": "28300 ± 7600"}
{"smiles": "O=c1[nH]cnc2c1ncn2[C@@H]1O[C@H](CO)[C@@H](O)[C@H]1O", "note": "[Isoprinosine]", "imaged cell count per well": "33100 ± 6400"}
{"smiles": "OCCOc1ccc(/C(=C(/CCCl)c2ccccc2)c2ccccc2)cc1", "note": "[Ospemifene]", "imaged cell count per well": "21200 ± 5200"}
{"smiles": "C=CCCCCCCCCC(=O)[O-].C=CCCCCCCCCC(=O)[O-].[Zn+2]", "note": "[Zinc Undecylenate]", "imaged cell count per well": "32500 ± 4700"}
{"smiles": "CCCCN1CCCCC1C(=O)Nc1c(C)cccc1C", "note": "(stereo not given) [Bupivacaine HCl]", "imaged cell count per well": "19500 ± 9600"}
{"smiles": "CC[C@@H]1/C=C(\\C)C[C@H](C)C[C@H](OC)[C@H]2O[C@@](O)(C(=O)C(=O)N3CCCC[C@H]3C(=O)O[C@H](/C(C)=C/[C@@H]3CC[C@@H](O)[C@H](OC)C3)[C@H](C)[C@@H](O)CC1=O)[C@H](C)C[C@@H]2OC", "note": "[Ascomycin (FK520)]", "imaged cell count per well": "27500 ± 1300"}
{"smiles": "N[C@@H](C(=O)N[C@@H]1C(=O)N2C(C(=O)O)=C(Cl)CS[C@H]12)c1ccccc1", "note": "[Cefaclor]", "imaged cell count per well": "24000 ± 460"}
{"smiles": "COC(=O)C1=C(C)NC(C)=C(C(=O)OCCN(C)Cc2ccccc2)C1c1cccc([N+](=O)[O-])c1", "note": "(stereo not given) [Nicardipine HCl]", "imaged cell count per well": "25900 ± 10000"}
{"smiles": "CC1(C)S[C@@H]2[C@H](NC(=O)[C@H](N)c3ccccc3)C(=O)N2[C@H]1C(=O)O", "note": "[Ampicillin Trihydrate]", "imaged cell count per well": "27000 ± 9500"}
{"smiles": "CC[C@@]1(O)C(=O)OCc2c1cc1n(c2=O)Cc2cc3c(CN(C)C)c(O)ccc3nc2-1", "note": "[Topotecan HCl]", "imaged cell count per well": "23800 ± 1800"}
{"smiles": "N[C@@H](CCC(=O)O)C(=O)O", "note": "[(S)-Glutamic acid]", "imaged cell count per well": "20400 ± 7500"}
{"smiles": "C[C@H](NCc1ccc(OCc2cccc(F)c2)cc1)C(N)=O", "note": "[Safinamide]", "imaged cell count per well": "16600 ± 3700"}
{"smiles": "CO/N=C(\\C(=O)N[C@@H]1C(=O)N2C(C(=O)O)=C(COC(C)=O)CS[C@H]12)c1csc(N)n1", "note": "[Cefotaxime sodium]", "imaged cell count per well": "23200 ± 3500"}
{"smiles": "COc1c(N2C[C@@H]3CCCN[C@@H]3C2)c(F)cc2c(=O)c(C(=O)O)cn(C3CC3)c12", "note": "[Moxifloxacin HCl]", "imaged cell count per well": "23200 ± 7700"}
{"smiles": "COc1ccc2cc([C@H](C)C(=O)O)ccc2c1", "note": "[Naproxen]", "imaged cell count per well": "14800 ± 4000"}
{"smiles": "Cc1ccc2c(Cl)cc(Cl)c(O)c2n1", "note": "[Chlorquinaldol]", "imaged cell count per well": "547 ± 320"}
{"smiles": "O=C(NCCO[N+](=O)[O-])c1cccnc1", "note": "[Nicorandil]", "imaged cell count per well": "26300 ± 3700"}
{"smiles": "CNCCCC1c2ccccc2C=Cc2ccccc21", "note": "[Protriptyline hydrochloride]", "imaged cell count per well": "22900 ± 4500"}
{"smiles": "COC(=O)C1=C(C)NC(C)=C(C(=O)OC)C1c1ccccc1[N+](=O)[O-]", "note": "[Nifedipine]", "imaged cell count per well": "17600 ± 3600"}
{"smiles": "CCOC(=O)C1=C(C)NC(C)=C(C(=O)OCC)C1c1ccccc1/C=C/C(=O)OC(C)(C)C", "note": "[Lacidipine]", "imaged cell count per well": "22100 ± 6300"}
{"smiles": "CC(NCCC(c1ccccc1)c1ccccc1)c1ccccc1", "note": "(stereo not given) [Fendiline hydrochloride]", "imaged cell count per well": "28900 ± 4200"}
{"smiles": "C#C[C@]1(OC(C)=O)CC[C@H]2[C@@H]3CCC4=C[C@@H](OC(C)=O)CC[C@@H]4[C@H]3CC[C@@]21C", "note": "[Ethynodiol diacetate]", "imaged cell count per well": "26800 ± 9200"}
{"smiles": "Nc1ccc2cc3ccc(N)cc3nc2c1", "note": "[Proflavine Hemisulfate]", "imaged cell count per well": "21200 ± 3900"}
{"smiles": "Cc1onc(-c2ccccc2Cl)c1C(=O)N[C@@H]1C(=O)N2[C@@H]1SC(C)(C)[C@@H]2C(=O)O", "note": "[Cloxacillin Sodium]", "imaged cell count per well": "18200 ± 6500"}
{"smiles": "CCCCc1oc2ccccc2c1C(=O)c1cc(I)c(OCCN(CC)CC)c(I)c1", "note": "[Amiodarone HCl]", "imaged cell count per well": "9890 ± 2700"}
{"smiles": "Cc1ccc(C(=O)C(C)CN2CCCCC2)cc1", "note": "(stereo not given) [Tolperisone HCl]", "imaged cell count per well": "21900 ± 3400"}
{"smiles": "Cc1nnc(NS(=O)(=O)c2ccc(N)cc2)s1", "note": "[Sulfamethizole]", "imaged cell count per well": "27700 ± 4800"}
{"smiles": "CN1CCN(c2cc3c(cc2F)c(=O)c(C(=O)O)cn3-c2ccc(F)cc2)CC1", "note": "[Difloxacin hydrochloride]", "imaged cell count per well": "27500 ± 4500"}
{"smiles": "Cc1ccc(O)c([C@H](CCN(C(C)C)C(C)C)c2ccccc2)c1", "note": "[Tolterodine tartrate]", "imaged cell count per well": "22700 ± 5300"}
{"smiles": "CCCC(=O)OCOC(=O)C1=C(C)NC(C)=C(C(=O)OC)C1c1cccc(Cl)c1Cl", "note": "(stereo not given) [Clevidipine Butyrate]", "imaged cell count per well": "23900 ± 4900"}
{"smiles": "c1ccc(C2CN3CCSC3=N2)cc1", "note": "(stereo not given) [Tetramisole HCl]", "imaged cell count per well": "25700 ± 2600"}
{"smiles": "CO[C@H]1C[C@@H]2CC[C@@H](C)[C@@](O)(O2)C(=O)C(=O)N2CCCC[C@H]2C(=O)O[C@H]([C@H](C)C[C@@H]2CC[C@@H](O)[C@H](OC)C2)CC(=O)[C@H](C)/C=C(\\C)[C@@H](O)[C@@H](OC)C(=O)[C@H](C)C[C@H](C)/C=C/C=C/C=C/1C", "note": "[Rapamycin (Sirolimus)]", "imaged cell count per well": "10700 ± 1300"}
{"smiles": "Cc1cnc(NC(=O)C2=C(O)c3ccccc3S(=O)(=O)N2C)s1", "note": "[Meloxicam]", "imaged cell count per well": "22800 ± 3200"}
{"smiles": "Cc1cccc(C)c1NC(=O)C1CCCCN1C", "note": "(stereo not given) [Mepivacaine HCl]", "imaged cell count per well": "23100 ± 9400"}
{"smiles": "CCC(C)(C)C(=O)O[C@H]1C[C@@H](C)C=C2C=C[C@H](C)[C@H](CC[C@@H]3C[C@@H](O)CC(=O)O3)[C@H]21", "note": "[Simvastatin]", "imaged cell count per well": "11300 ± 6400"}
{"smiles": "CNS(=O)(=O)Cc1ccc2[nH]cc(CCN(C)C)c2c1", "note": "[Sumatriptan Succinate]", "imaged cell count per well": "22700 ± 2000"}
{"smiles": "CNCCCN1c2ccccc2CCc2ccccc21", "note": "[Desipramine Hydrochloride]", "imaged cell count per well": "29000 ± 2600"}
{"smiles": "COCCCC/C(=N\\OCCN)c1ccc(C(F)(F)F)cc1", "note": "[Fluvoxamine maleate]", "imaged cell count per well": "26700 ± 2700"}
